Laboratory results: PubChem BioAssay AID652272 (Drosophila RNAi Screening Center, 2013)
In all, the deposit lists about 21,000 reagents; this is an unselected part of those with a known target gene and a result. In the full data, 503 (2.4%) were called active. 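Raw plate light values, not normalised; calls rest on replicate z-scores that were not deposited; hits include reporter decreases as well as increases.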 Reagents against one gene are numbered here. The record does not give: the amount of reagent, the time to read-out.

Purpose: 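Genes whose knock-down decreases or increases Hedgehog reporter output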 (primary screen)
Cell system: Drosophila clone 8 (Cl8) cells
Reagents: long dsRNA against Drosophila genes
Read-out: 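Plate reader light from a firefly reporter under a ptc promoter fragment that responds to Hedgehog, with Renilla light as transfection reference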
Scale: firefly Hh reporter signal: higher = more ptc reporter light; Renilla reference signal: higher = more Renilla control light
Active means: 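Hit when the z-score averaged over two replicates is under -2 or over +3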
Calls: active = hit: reporter lowered or raised; inactive = not a hit

Ilp4
- firefly Hh reporter signal, replicate 1: 41180
- firefly Hh reporter signal, replicate 2: 54333
- firefly Hh reporter signal, replicate 3: 65168
- Renilla reference signal, replicate 1: 5524
- Renilla reference signal, replicate 2: 4230
- outcome: inactive

CG43134
- firefly Hh reporter signal, replicate 1: 6.15e5
- firefly Hh reporter signal, replicate 2: 2.42e5
- Renilla reference signal, replicate 1: 29802
- Renilla reference signal, replicate 2: 4689
- outcome: inactive

Lrr47
- firefly Hh reporter signal, replicate 1: 55512
- firefly Hh reporter signal, replicate 2: 1.22e5
- Renilla reference signal, replicate 1: 2416
- Renilla reference signal, replicate 2: 3921
- outcome: inactive

Tailor
- firefly Hh reporter signal, replicate 1: 78931
- firefly Hh reporter signal, replicate 2: 93724
- Renilla reference signal, replicate 1: 3276
- Renilla reference signal, replicate 2: 2773
- outcome: inactive

Acp53C14b
- firefly Hh reporter signal, replicate 1: 96358
- firefly Hh reporter signal, replicate 2: 39314
- Renilla reference signal, replicate 1: 2704
- Renilla reference signal, replicate 2: 2624
- outcome: inactive

CG9926
- firefly Hh reporter signal, replicate 1: 1.44e5
- firefly Hh reporter signal, replicate 2: 1.04e5
- Renilla reference signal, replicate 1: 6288
- Renilla reference signal, replicate 2: 4073
- outcome: inactive

CG42329 #1
- firefly Hh reporter signal, replicate 1: 94744
- firefly Hh reporter signal, replicate 2: 1.07e5
- Renilla reference signal, replicate 1: 2416
- Renilla reference signal, replicate 2: 2712
- outcome: inactive

CG42329 #2
- firefly Hh reporter signal, replicate 1: 1.07e5
- firefly Hh reporter signal, replicate 2: 64140
- Renilla reference signal, replicate 1: 2388
- Renilla reference signal, replicate 2: 1712
- outcome: inactive

MED17
- firefly Hh reporter signal, replicate 1: 1.21e5
- firefly Hh reporter signal, replicate 2: 1.24e5
- Renilla reference signal, replicate 1: 4486
- Renilla reference signal, replicate 2: 4018
- outcome: inactive

Ir51b
- firefly Hh reporter signal, replicate 1: 1.78e5
- firefly Hh reporter signal, replicate 2: 2.34e5
- Renilla reference signal, replicate 1: 4420
- Renilla reference signal, replicate 2: 10154
- outcome: inactive

Entries above whose gene name begins with C or c:
CG43134
- firefly Hh reporter signal, replicate 1: 6.15e5
- firefly Hh reporter signal, replicate 2: 2.42e5
- Renilla reference signal, replicate 1: 29802
- Renilla reference signal, replicate 2: 4689
- outcome: inactive

CG9926
- firefly Hh reporter signal, replicate 1: 1.44e5
- firefly Hh reporter signal, replicate 2: 1.04e5
- Renilla reference signal, replicate 1: 6288
- Renilla reference signal, replicate 2: 4073
- outcome: inactive

CG42329 #1
- firefly Hh reporter signal, replicate 1: 94744
- firefly Hh reporter signal, replicate 2: 1.07e5
- Renilla reference signal, replicate 1: 2416
- Renilla reference signal, replicate 2: 2712
- outcome: inactive

CG42329 #2
- firefly Hh reporter signal, replicate 1: 1.07e5
- firefly Hh reporter signal, replicate 2: 64140
- Renilla reference signal, replicate 1: 2388
- Renilla reference signal, replicate 2: 1712
- outcome: inactive

Further entries follow.
CG6179
- firefly Hh reporter signal, replicate 1: 65840
- firefly Hh reporter signal, replicate 2: 1.94e5
- Renilla reference signal, replicate 1: 1405
- Renilla reference signal, replicate 2: 8229
- outcome: inactive

BubR1
- firefly Hh reporter signal, replicate 1: 77943
- firefly Hh reporter signal, replicate 2: 47716
- Renilla reference signal, replicate 1: 1683
- Renilla reference signal, replicate 2: 4858
- outcome: inactive

ect #1
- firefly Hh reporter signal, replicate 1: 57120
- firefly Hh reporter signal, replicate 2: 80081
- firefly Hh reporter signal, replicate 3: 7.46e5
- Renilla reference signal, replicate 1: 6508
- Renilla reference signal, replicate 2: 4320
- outcome: inactive

ect #2
- firefly Hh reporter signal, replicate 1: 50348
- firefly Hh reporter signal, replicate 2: 72809
- firefly Hh reporter signal, replicate 3: 44771
- Renilla reference signal, replicate 1: 5904
- Renilla reference signal, replicate 2: 2604
- outcome: inactive

Nlg1 #1
- firefly Hh reporter signal, replicate 1: 2.39e5
- Renilla reference signal, replicate 1: 3872
- outcome: inactive

Nlg1 #2
- firefly Hh reporter signal, replicate 1: 46134
- firefly Hh reporter signal, replicate 2: 93328
- Renilla reference signal, replicate 1: 2156
- Renilla reference signal, replicate 2: 2716
- outcome: inactive

Nlg1 #3
- firefly Hh reporter signal, replicate 1: 66103
- firefly Hh reporter signal, replicate 2: 1.50e5
- Renilla reference signal, replicate 1: 2725
- Renilla reference signal, replicate 2: 3944
- outcome: inactive

Nlg1 #4
- firefly Hh reporter signal, replicate 1: 54816
- firefly Hh reporter signal, replicate 2: 78326
- Renilla reference signal, replicate 1: 2054
- Renilla reference signal, replicate 2: 2141
- outcome: inactive

Trax
- firefly Hh reporter signal, replicate 1: 1.03e5
- firefly Hh reporter signal, replicate 2: 68915
- Renilla reference signal, replicate 1: 4647
- Renilla reference signal, replicate 2: 1731
- outcome: inactive

Mnn1
- firefly Hh reporter signal, replicate 1: 1.61e5
- firefly Hh reporter signal, replicate 2: 96859
- Renilla reference signal, replicate 1: 4132
- Renilla reference signal, replicate 2: 8084
- outcome: inactive

IPIP
- firefly Hh reporter signal, replicate 1: 1.40e5
- firefly Hh reporter signal, replicate 2: 1.27e5
- Renilla reference signal, replicate 1: 6284
- Renilla reference signal, replicate 2: 5592
- outcome: inactive
